# According to US20260217821A1 (SPH BIOTHERAPEUTICS SHANGHAI, published 2026):
# B1: 5-95 (VHH)
# VHH: QVQLQESGGGLVQPGGSLRLSCAASGFTFSTYSMTWVRQAPGKGLEWVSDINSGGSVAYYTDSVKGRFTASRDNAKNTLYLQMNSLKPEDTAVYYCYEGGYHGGSPRGHGTQVTVSS
# notes: not shown: one his tag and one HA tag at the C-terminus
# B2: 5-26 (VHH)
# VHH: QVQLQESGGGLVQPGGSLRLSCAASGFTLDLYAIGWFRQAPGKERERVSCISSGGSTNYAESVKGRFTISRDNGKNTVYLQMNSLKPEDTAVYYCVRSVPSCGSYYFPPRNMNYWGKGTQVTVSS
# notes: Alpaca VHH from the phage library; not shown: one his tag and one HA tag at the C-terminus
# B3: 5-09 (VHH)
# VHH: QVQLQESGGGLVQPGGSLRLSCAASGFTLDDYAIGWFRQAPGKERERISCISSGGNTNYADSVKGRFTLSRDNAKNTVYLQMYSLKPEDTAVYYCTASIPSCASYYFPPRNMDYWGKGTQVTVSS
# notes: also called 5-9; not shown: one his tag and one HA tag at the C-terminus
# B4: 4-92 (VHH)
# VHH: QVQLQESGGGLVQPGGSLRLSCAASGFAFSSRAMSWVRQAPGKGLEWVSDINYDGAWTYYADSVKGRFTISRDNAKNTLYLQMNSLKPEDTAVYFCTDPWSIDGWGQGTQVTVSS
# notes: as for B2
# Columns and labels:
# RBD (his-tagged protein) [1] = test: specificity ELISA, HRP anti-HA detection (FIGS. 9A-9B)
# [2] = molecular target: PD-L1 (his-tagged protein); test: as above
# RBD (his-tagged protein) [3] = test: specificity ELISA, HRP anti-HA detection (FIG. 9A)
# [4] = molecular target: PD-L1 (his-tagged protein); test: specificity ELISA, HRP anti-HA detection (FIG. 9A)
# RBD (his-tagged protein) [5] = test: specificity ELISA, HRP anti-HA detection (FIG. 9B)
# [6] = molecular target: PD-L1 (his-tagged protein); test: specificity ELISA, HRP anti-HA detection (FIG. 9B)
Binder,binding (RBD (his-tagged protein) [1]),binding [2],further results
B1,no binding (tested: 3 µg/ml),no binding (tested: 3 µg/ml),–
B2,–,–,binding (RBD (his-tagged protein) [3]): no binding (tested: 3 µg/ml); binding [4]: no binding (tested: 3 µg/ml)
B3,no binding (tested: 3 µg/ml),no binding (tested: 3 µg/ml),–
B4,–,–,binding (RBD (his-tagged protein) [5]): no binding (tested: 3 µg/ml); binding [6]: no binding (tested: 3 µg/ml)

# Results are given in words; binding and its absence hold for the method and conditions named.
